Experimental data taken from the supplement of paper PMC12282887.
Values are raw readings; no control value is given beside them.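 The top concentration was set near the MIC for antimicrobials, at 500 µM for most other compounds, and up to 1 mM for known inducer-like compounds. Deletion strains started from a tenfold smaller inoculum, and wells growing below 10% of the overall median were treated as non-growing.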 Where a SMILES comes first, the peptide text is derived from it. Bridges are numbered along the chain shown (N, C = ends). [ ]: non-standard residue; d: D form. The star is where a group is joined. Ileψ(thiazoline)Cys = CC[C@H](C)[C@H](N)C1=N[C@H](C(=O)*)CS1; dOrn = NCCC[C@@H](N)C(=O)O

System: Escherichia coli BW25113
Test: growth (OD600 area under curve, 8 h) (OD600 x h); higher = more growth
Description: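 E. coli BW25113 reporter strains (wild type, ΔmarA, ΔsoxS, Δrob, each carrying one of 8 lux reporter plasmids) were grown in 40 µl LB in 384-well plates at 37°C, 800 rpm, with each compound at 4 two-fold concentrations, in biological duplicates. Growth is the baseline-corrected OD600 area under the curve over 8 h (0-8 h WT, 1-9 h deletion strains).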

CC[C@H](C)[C@H](N)C1=N[C@H](C(=O)N[C@@H](CC(C)C)C(=O)N[C@H](CCC(=O)O)C(=O)N[C@H](C(=O)N[C@H]2CCCCNC(=O)[C@H](CC(N)=O)NC(=O)[C@@H](CC(=O)O)NC(=O)[C@H](Cc3cnc[nH]3)NC(=O)[C@@H](Cc3ccccc3)NC(=O)[C@H]([C@@H](C)CC)NC(=O)[C@@H](CCCN)NC2=O)[C@@H](C)CC)CS1 [Bacitracin] ({Ileψ(thiazoline)Cys}-L[dE]IK[dOrn]I[dF]H[dD]N; lactam 4-C)
growth
Conditions | reporter plasmid: EVC | reporter plasmid: acrABp | reporter plasmid: marRABp | reporter plasmid: micFp | reporter plasmid: ompFp | reporter plasmid: robp | reporter plasmid: soxSp | reporter plasmid: tolCp
142.3 µg/ml, genetic background: wild type | 2.57 | 3.3 | 3.14 | 2.99 | 3.12 | 3.19 | 2.79 | 2.83
142.3 µg/ml, genetic background: ΔmarA | 3.19 | 4.19 | 3.89 | 3.33 | 3.73 | 3.9 | 3.08 | 2.97
142.3 µg/ml, genetic background: Δrob | 2.77 | 3.01 | 3.3 | 2.83 | 2.54 | 2.65 | 2.68 | 2.79
142.3 µg/ml, genetic background: ΔsoxS | 3.08 | 3.22 | 3.19 | 2.726 | 2.993 | 3.21 | 3.14 | 3.14
284.5 µg/ml, genetic background: wild type | 2.04 | 2.352 | 2.05 | 1.97 | 0.547 | 1.86 | 2.02 | 2.113
284.5 µg/ml, genetic background: ΔmarA | 2.3 | 2.81 | 2.24 | 2.3 | 2.03 | 2.83 | 1.93 | 2.25
284.5 µg/ml, genetic background: Δrob | 1.81 | 1.83 | 1.92 | 1.97 | 1.22 | 1.01 | 1.9 | 2
284.5 µg/ml, genetic background: ΔsoxS | 2.22 | 1.8 | 1.73 | 1.89 | 1.62 | 1.46 | 0.298 | 2.13
